Measurements reported in PubChem BioAssay AID1259286 (Sanger Institute, 2017)
This is one part, drawn at random, of 794 reagents. In the full data, 17 (2.1%) got an active call. 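Calls use knock-down alone only; synergy above 0.15 marked separately; viability seems capped at control level; exposure time not given.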 Not given: the amount of reagent, the time to read-out.

Screen: 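Kinome knock-downs lethal on their own or synergistic with anchor drugs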 (primary screen)
Cell system: NCI-H630 human colorectal cancer cells
Reagents: siRNA pool against human genes
Conditions: anchor drugs BYL719 at 1 µM, cetuximab at 5 µg/ml or trametinib at 10 nM, or DMSO vehicle alone; exposure time not given
Measurement: 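Replicate-averaged viability as a fraction of non-targeting control, knock-down-alone robust z-score, and per-drug synergy scores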
Scale: viability z-score, knock-down alone: higher = more viable cells, weaker knock-down effect; viability vs control, knock-down alone: higher = more viable cells; synergy score with trametinib: higher = stronger synergistic killing with trametinib; synergy score with BYL719: higher = stronger synergistic killing with BYL719; synergy score with cetuximab: higher = stronger synergistic killing with cetuximab
Active means: 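Essential call: robust z-score of viability with siRNA alone lower than -3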
Meaning of the calls: active = essential when knocked down alone; inactive = not essential alone

target	viability z-score, knock-down alone	viability vs control, knock-down alone (fraction of control)	synergy score with trametinib	synergy score with BYL719	synergy score with cetuximab	outcome
PAPSS2	0.131	0.987	0.00964	-0.0916	-0.018	inactive
ACVR2A	0.464	1	-0.0479	-0.0495	0.0173	inactive
STK40	-0.116	0.978	0.0378	-0.0267	0.0208	inactive
ALPK1	0.464	1	-0.0479	-0.0322	0.00149	inactive
TEX14	0.464	1	-0.0479	-0.0399	0.0764	inactive
COASY	-0.0701	0.98	0.00622	0.0927	0.0763	inactive
ACVRL1	0.464	1	-0.0479	0.0602	0.0326	inactive
MAGI1	0.464	1	-0.0479	0.0707	0.0993	inactive
MAPK7	0.464	1	-0.0333	-0.0814	0.103	inactive
TTBK1	0.464	1	-0.0479	0.015	0.121	inactive
INSRR	0.464	1	-0.0479	0.00917	0.0135	inactive
HCK	0.464	1	-0.0072	0.0528	0.0859	inactive
NRBP1	0.464	1	-0.0311	0.022	0.00422	inactive
TESK1	0.433	0.999	-0.049	-0.0825	0.0723	inactive
SRP72	0.464	1	-0.0479	-0.00327	0.0552	inactive
DDR2	0.464	1	-0.0424	-0.0803	0.039	inactive
EGFR	-0.806	0.952	0.000998	0.042	0.0428	inactive
MAP3K7	0.464	1	-0.0479	0.0226	0.00726	inactive
MAP3K21	0.464	1	-0.0479	-0.0626	0.0349	inactive
PKIB	0.464	1	-0.0479	-0.0789	-0.0469	inactive
PI4KA	0.464	1	-0.0479	-0.0814	-0.0699	inactive
TAOK1	0.464	1	-0.0479	-0.00462	0.0677	inactive
IKBKE	0.464	1	-0.0479	0.0829	0.0675	inactive
PRAG1	0.464	1	0.00736	0.0189	0.108	inactive
PRKD2	0.464	1	-0.0329	0.0493	-0.117	inactive
RBM10	0.464	1	0.0363	0.102	0.198	inactive
SRPK3	0.464	1	-0.0102	-0.0178	0.00114	inactive
TYK2	0.464	1	-0.0273	-0.0814	0.059	inactive
RTN4	0.464	1	-0.0265	-0.0408	0.00428	inactive
POLR2B	0.464	1	0.0102	0.0852	0.0101	inactive
STAG2	0.464	1	-0.0479	-0.0814	-0.00178	inactive
FGFR3	0.464	1	-0.0184	0.00484	0.0525	inactive
TP53BP1	0.464	1	-0.0245	-0.0814	0.00777	inactive
TRIB2	0.142	0.988	-0.0172	0.0126	0.0244	inactive
MOS	-0.177	0.976	-0.071	0.111	0.0429	inactive
MELK	0.464	1	-0.0407	0.0636	-0.121	inactive
ADPGK	-0.693	0.956	0.000805	-0.0196	-0.063	inactive
WIPF1	0.464	1	0.0541	0.0283	0.0216	inactive
PTK6	0.464	1	-0.0479	0.0165	-0.0992	inactive
MASTL	0.464	1	-0.039	0.0666	-0.0151	inactive
NME7	-2.62	0.883	-0.14	-0.108	-0.0642	inactive
NTRK3	0.464	1	-0.0479	-0.0814	-0.121	inactive
GCK	0.233	0.991	-0.0423	-0.0208	0.0368	inactive
ADCK2	0.416	0.998	0.0287	0.0546	0.149	inactive
EFNA3	0.464	1	0.0549	-0.0245	0.0734	inactive
ARAF	0.464	1	-0.0462	-0.0814	-0.0728	inactive
PTEN	-0.802	0.952	-0.0935	-0.0773	-0.0353	inactive
WNK2	0.464	1	-0.0185	-0.0814	-0.0404	inactive
FN3KRP	-0.286	0.972	0.0303	0.08	0.106	inactive
TAF1L	0.464	1	-0.0479	0.000483	-0.105	inactive
PDGFRL	-1.11	0.94	-0.00694	-0.136	-0.0281	inactive
PRKACA	0.464	1	-0.0479	-0.0814	-0.0546	inactive
AKAP9	0.464	1	-0.0466	-0.0699	-0.0839	inactive
MAP3K5	0.464	1	-0.028	-0.00612	-0.0593	inactive
RYK	0.464	1	-0.0479	-0.076	-0.041	inactive
FGFRL1	-1.26	0.935	-0.0873	-0.106	-0.00797	inactive
EPHA2	0.464	1	-0.0479	-0.0814	-0.00864	inactive
PFKFB1	-1.25	0.935	-0.0417	0.0738	0.051	inactive
MAP4K5	0.464	1	-0.0233	0.0399	-0.0529	inactive
PRKCG	0.464	1	-0.0479	-0.0509	-0.0321	inactive
CUL1	-1.27	0.934	-0.0216	-0.142	-0.133	inactive
ALDH18A1	0.464	1	-0.0251	0.0228	0.0989	inactive
BCOR	-0.288	0.972	-0.0168	0.0157	0.0719	inactive
